According to patent publication US20230287071A1:

B1: … (SEQ ID NO: 345) (peptide)
peptide: AEYQAAILHL
B2: … (SEQ ID NO: 354) (peptide)
peptide: TEIMEKTTL
B3: … (SEQ ID NO: 340) (peptide)
peptide: GELAPSHGL
B4: … (SEQ ID NO: 349) (peptide)
peptide: LEWQHPSSW
B5: … (SEQ ID NO: 25) (peptide)
peptide: SEKEPGQQY
B6: … (SEQ ID NO: 352) (peptide)
peptide: QEDELVKIRKY
B7: … (SEQ ID NO: 341) (peptide)
peptide: HELESENKKW
B8: DEIRVFGY (SEQ ID NO: 344) (peptide)
peptide: DEIRVFGY
B9: … (SEQ ID NO: 343) (peptide)
peptide: SEFDLEQVW
B10: … (SEQ ID NO: 350) (peptide)
peptide: EEMLENVSL
B11: … (SEQ ID NO: 331) (peptide)
peptide: KELEATKQYL
B12: … (SEQ ID NO: 332) (peptide)
peptide: SEADWLRFW
B13: TEAVLNRY (SEQ ID NO: 356) (peptide)
peptide: TEAVLNRY
B14: … (SEQ ID NO: 348) (peptide)
peptide: SEVLLTSISTF
B15: … (SEQ ID NO: 338) (peptide)
peptide: AEMKFYVVI
B16: … (SEQ ID NO: 355) (peptide)
peptide: SETSTGTSV
B17: … (SEQ ID NO: 27) (peptide)
peptide: GETCVRITY
B18: … (SEQ ID NO: 333) (peptide)
peptide: SEGTLPYSY
B19: … (SEQ ID NO: 26) (peptide)
peptide: EESSSPVDEY
B20: … (SEQ ID NO: 353) (peptide)
peptide: AETEEGIYW
B21: … (SEQ ID NO: 339) (peptide)
peptide: NEVKEIKGY
B22: EEGRVYVY (SEQ ID NO: 351) (peptide)
peptide: EEGRVYVY
B23: … (SEQ ID NO: 335) (peptide)
peptide: SETPTLQGL
B24: … (SEQ ID NO: 334) (peptide)
peptide: LEWQNSSSM
B25: … (SEQ ID NO: 342) (peptide)
peptide: SENKKWVEF
B26: … (SEQ ID NO: 347) (peptide)
peptide: LENPHVQSV
B27: … (SEQ ID NO: 346) (peptide)
peptide: EEIENLQAQF
B28: … (SEQ ID NO: 336) (peptide)
peptide: QEVNISLHY

Biological target: HLA-B*44:05 (human)
Assay: UV peptide-exchange ELISA, yield grade

binding, binds:
B1
B2
B3
B4
B5
B6
B7
B8
B9
B10
B11
B12
B13
B14
B15
B16
B17
B18
B19
B20
B21
B22
B23
B24
B25
B26
B27
B28

These are yes or no findings as the source states them, for the method shown. Binding can be weak; no strength is given.
